{"source": "PubChem BioAssay AID652259 (Drosophila RNAi Screening Center, 2013)", "aim": "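Knock-downs that push a Wingless-driven reporter up or down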 (primary screen)", "system": "Drosophila clone 8 imaginal disc epithelial cells", "reagent": "long dsRNA against Drosophila genes", "conditions": "pathway stimulated by co-transfected Wingless expression plasmid", "measurement": "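Firefly luciferase from a tcf-site Wingless reporter, measured alongside co-transfected Renilla luciferase that tracks transfection; pathway stimulated by a Wingless plasmid; the firefly-to-Renilla ratio is not deposited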", "reading the numbers": "firefly reporter light: higher = more Wg reporter light, before normalisation; Renilla control light: higher = more transfected or surviving cells", "call rule": "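a knock-down is a candidate when at least two out of four statistical tests show it departing from its plate mean; one test alone signals a weak candidate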", "calls": "active = candidate regulator (raises or lowers reporter); inactive = not a candidate", "note": "The deposit covers about 22,000 reagents; shown is an unselected part of those that have a named target and a result. Over the whole deposit, 233 (1.1%) are marked active. 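Light values are raw, unnormalised plate reads; the ratio scores behind the reporter calls were not deposited.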 The record does not give: the amount of reagent, the time to read-out, the dose of the treatment."}
{"gene": "Obp8a", "dsRNA": "DRSC17868", "firefly reporter light, replicate 1": 19328, "Renilla control light, replicate 1": 6378, "activity call": "inactive"}
{"gene": "CG3902", "dsRNA": "DRSC10387", "firefly reporter light, replicate 1": 17125, "Renilla control light, replicate 1": 3555, "activity call": "inactive"}
{"gene": "CG34398", "dsRNA": "DRSC01052", "firefly reporter light, replicate 1": 29158, "firefly reporter light, replicate 2": 9.03e5, "Renilla control light, replicate 1": 18039, "Renilla control light, replicate 2": 5.33e5, "activity call": "inactive"}
{"gene": "CG34398", "dsRNA": "DRSC02510", "firefly reporter light, replicate 1": 4123, "firefly reporter light, replicate 2": 10018, "Renilla control light, replicate 1": 1063, "Renilla control light, replicate 2": 2150, "activity call": "inactive"}
{"gene": "CG34398", "dsRNA": "DRSC02511", "firefly reporter light, replicate 1": 10405, "Renilla control light, replicate 1": 3078, "activity call": "inactive"}
{"gene": "CG34398", "dsRNA": "DRSC03228", "firefly reporter light, replicate 1": 2258, "firefly reporter light, replicate 2": 8391, "Renilla control light, replicate 1": 1252, "Renilla control light, replicate 2": 2775, "activity call": "inactive"}
{"gene": "ng1", "dsRNA": "DRSC18802", "firefly reporter light, replicate 1": 16449, "Renilla control light, replicate 1": 12781, "activity call": "inactive"}
{"gene": "vib", "dsRNA": "DRSC17094", "firefly reporter light, replicate 1": 4733, "firefly reporter light, replicate 2": 6388, "Renilla control light, replicate 1": 1833, "Renilla control light, replicate 2": 2858, "activity call": "inactive"}
{"gene": "Ugt36A1", "dsRNA": "DRSC00748", "firefly reporter light, replicate 1": 4184, "firefly reporter light, replicate 2": 8157, "Renilla control light, replicate 1": 1840, "Renilla control light, replicate 2": 1197, "activity call": "inactive"}
{"gene": "Lcp2", "dsRNA": "DRSC07456", "firefly reporter light, replicate 1": 2833, "firefly reporter light, replicate 2": 5094, "Renilla control light, replicate 1": 936, "Renilla control light, replicate 2": 1552, "activity call": "inactive"}
{"gene": "CG1137", "dsRNA": "DRSC12529", "firefly reporter light, replicate 1": 9030, "Renilla control light, replicate 1": 2498, "activity call": "inactive"}
{"gene": "prod", "dsRNA": "DRSC07667", "firefly reporter light, replicate 1": 12497, "Renilla control light, replicate 1": 3744, "activity call": "inactive"}
{"gene": "Unc50", "dsRNA": "DRSC16561", "firefly reporter light, replicate 1": 21328, "Renilla control light, replicate 1": 4576, "activity call": "inactive"}
{"gene": "Gs2", "dsRNA": "DRSC20250", "firefly reporter light, replicate 1": 15536, "Renilla control light, replicate 1": 10464, "activity call": "inactive"}
{"gene": "Lst", "dsRNA": "DRSC07146", "firefly reporter light, replicate 1": 8555, "Renilla control light, replicate 1": 3536, "activity call": "inactive"}
{"gene": "S-Lap1", "dsRNA": "DRSC10627", "firefly reporter light, replicate 1": 7872, "Renilla control light, replicate 1": 4656, "activity call": "inactive"}
{"gene": "Mst36Fa", "dsRNA": "DRSC21564", "firefly reporter light, replicate 1": 8.08e5, "firefly reporter light, replicate 2": 7.32e5, "Renilla control light, replicate 1": 3.85e5, "Renilla control light, replicate 2": 3.62e5, "activity call": "inactive"}

Entries listed so far whose gene name begins with C or c:
{"gene": "CG3902", "dsRNA": "DRSC10387", "firefly reporter light, replicate 1": 17125, "Renilla control light, replicate 1": 3555, "activity call": "inactive"}
{"gene": "CG34398", "dsRNA": "DRSC01052", "firefly reporter light, replicate 1": 29158, "firefly reporter light, replicate 2": 9.03e5, "Renilla control light, replicate 1": 18039, "Renilla control light, replicate 2": 5.33e5, "activity call": "inactive"}
{"gene": "CG34398", "dsRNA": "DRSC02510", "firefly reporter light, replicate 1": 4123, "firefly reporter light, replicate 2": 10018, "Renilla control light, replicate 1": 1063, "Renilla control light, replicate 2": 2150, "activity call": "inactive"}
{"gene": "CG34398", "dsRNA": "DRSC02511", "firefly reporter light, replicate 1": 10405, "Renilla control light, replicate 1": 3078, "activity call": "inactive"}
{"gene": "CG34398", "dsRNA": "DRSC03228", "firefly reporter light, replicate 1": 2258, "firefly reporter light, replicate 2": 8391, "Renilla control light, replicate 1": 1252, "Renilla control light, replicate 2": 2775, "activity call": "inactive"}
{"gene": "CG1137", "dsRNA": "DRSC12529", "firefly reporter light, replicate 1": 9030, "Renilla control light, replicate 1": 2498, "activity call": "inactive"}
